According to patent publication US20250081967A1, “PESTICIDALLY ACTIVE HETEROCYCLIC DERIVATIVES WITH SULFOXIMINE CONTAINING SUBSTITUENTS” (SYNGENTA CROP PROTECTION AG, priority 2021, published 2025):
Some entries share one result that the patent states for a list of compounds.

Columns and labels:
Assay type in all cases: in vivo
Bemisia tabaci = assay: Activity against Bemisia tabaci (cotton white fly), cotton leaf discs; details: application rate 200 ppm; adult white flies; 6 days after incubation
Description: Example B6: Activity Against Bemisia tabaci (Cotton White Fly)
Cotton leaf discs were placed on agar in 24-well microtiter plates and sprayed with aqueous test solutions prepared from 10′000 ppm DMSO stock solutions. After drying the leaf discs were infested with adult white flies. The samples were checked for mortality 6 days after incubation.

Myzus persicae [1] = assay: Activity against Myzus persicae (green peach aphid), systemic activity, pea seedlings; details: test rate 24 ppm, 6 days after placing seedlings in test solutions
Description: Example B5: Activity Against Myzus persicae (Green Peach Aphid) Systemic Activity
Roots of pea seedlings infested with an aphid population of mixed ages were placed directly in the aqueous test solutions prepared from 10′000 DMSO stock solutions. The samples were assessed for mortality 6 days after placing seedlings in test solutions.

Myzus persicae [2] = assay: Activity against Myzus persicae (green peach aphid), feeding/contact activity, sunflower leaf discs; details: application rate 200 ppm, 6 days after infestation
Description: Example B4: Activity Against Myzus persicae (Green Peach Aphid) Feeding/Contact Activity
Sunflower leaf discs were placed on agar in a 24-well microtiter plate and sprayed with aqueous test solutions prepared from 10′000 ppm DMSO stock solutions. After drying, the leaf discs were infested with an aphid population of mixed ages. The samples were assessed for mortality 6 days after infestation.

Plutella xylostella = assay: Activity against Plutella xylostella (diamond back moth), artificial diet, eggs; details: application rate 200 ppm, 8 days after infestation
Description: Example B9: Activity Against Plutella xylostella (Diamond Back Moth)
24-well microtiter plates with artificial diet were treated with aqueous test solutions prepared from 10′000 ppm DMSO stock solutions by pipetting. After drying, Plutella eggs were pipetted through a plastic stencil onto a gel blotting paper and the plate was closed with it. The samples were assessed for mortality and growth inhibition in comparison to untreated samples 8 days after infestation.

Spodoptera littoralis = assay: Activity against Spodoptera littoralis (Egyptian cotton leaf worm), cotton leaf discs; details: application rate 200 ppm; L1 larvae; 3 days after infestation
Description: Example B1: Activity Against Spodoptera littoralis (Egyptian Cotton Leaf Worm)
Cotton leaf discs were placed onto agar in 24-well microtiter plates and sprayed with aqueous test solutions prepared from 10′000 ppm DMSO stock solutions. After drying the leaf discs were infested with five L1 larvae. The samples were assessed for mortality, anti-feeding effect, and growth inhibition in comparison to untreated samples 3 days after infestation. Control of Spodoptera littoralis by a test sample is given when at least one of the categories mortality, anti-feedant effect, and growth inhibition is higher than the untreated sample.

Diabrotica balteata = assay: Activity against Diabrotica balteata (corn root worm), maize sprouts; details: application rate 200 ppm; L2 larvae; 4 days after infestation
Description: Example B3: Activity Against Diabrotica Balteata (Corn Root Worm)
Maize sprouts placed onto an agar layer in 24-well microtiter plates were treated with aqueous test solutions prepared from 10′000 ppm DMSO stock solutions by spraying. After drying, the plates were infested with L2 larvae (6 to 10 per well). The samples were assessed for mortality and growth inhibition in comparison to untreated samples 4 days after infestation.

Chilo suppressalis = assay: Activity against Chilo suppressalis (striped rice stemborer), artificial diet; details: application rate 200 ppm; L2 larvae; 6 days after infestation
Description: Example B11: Activity Against Chilo suppressalis (Striped Rice Stemborer)
24-well microtiter plates with artificial diet were treated with aqueous test solutions prepared from 10′000 ppm DMSO stock solutions by pipetting. After drying, the plates were infested with L2 larvae (6-8 per well). The samples were assessed for mortality, anti-feeding effect, and growth inhibition in comparison to untreated samples 6 days after infestation. Control of Chilo suppressalis by a test sample is given when at least one of the categories mortality, anti-feedant effect, and growth inhibition is higher than the untreated sample.

CCS(=N)(=O)c1cc(C2(C#N)CC2)cnc1-c1nc2cc(C(F)(F)F)nnc2n1C (single isomer, unassigned) [Compound P2-B, 1-[5-(ethylsulfonimidoyl)-6-[7-methyl-3-(trifluoromethyl)imidazo[4,5-c]pyridazin-6-yl]-3-pyridyl]cyclopropanecarbonitrile]
at least 80%: mortality (Bemisia tabaci) | mortality (Myzus persicae [1]) | mortality (Myzus persicae [2])

CCS(=N)(=O)c1cc(OC(C)(C)C#N)c(C)nc1-c1nc2cc(C(F)(F)F)cnc2n1C (single isomer, unassigned) [Compound P5-A, 2-[[5-(ethylsulfonimidoyl)-2-methyl-6-[3-methyl-6-(trifluoromethyl)imidazo[4,5-b]pyridin-2-yl]-3-pyridyl]oxy]-2-methyl-propanenitrile]
at least 80%: effect in at least one of the two categories (mortality or growth inhibition) (Plutella xylostella)

CCS(=N)(=O)c1cc(OC(C)(C)C#N)c(C)nc1-c1nc2cc(C(F)(F)F)cnc2n1C (single isomer, unassigned) [Compound P5-B, 2-[[5-(ethylsulfonimidoyl)-2-methyl-6-[3-methyl-6-(trifluoromethyl)imidazo[4,5-b]pyridin-2-yl]-3-pyridyl]oxy]-2-methyl-propanenitrile]
at least 80%: control (mortality, anti-feeding effect or growth inhibition) (Spodoptera littoralis) | mortality (Bemisia tabaci) | effect in at least one of the two categories (mortality or growth inhibition) (Diabrotica balteata) | mortality (Myzus persicae [1]) | mortality (Myzus persicae [2])

CCS(=N)(=O)c1cc(C2(C#N)CC2)ccc1-c1nc2cc(C(F)(F)F)cnc2n1C (single isomer, unassigned) [Compound P6-A, 1-[3-(ethylsulfonimidoyl)-4-[3-methyl-6-(trifluoromethyl)imidazo[4,5-b]pyridin-2-yl]phenyl]cyclopropanecarbonitrile]
at least 80%: effect in at least one of the two categories (mortality or growth inhibition) (Plutella xylostella)

CCS(=N)(=O)c1cc(C2(C#N)CC2)ccc1-c1nc2cc(C(F)(F)F)cnc2n1C (single isomer, unassigned) [Compound P6-B, 1-[3-(ethylsulfonimidoyl)-4-[3-methyl-6-(trifluoromethyl)imidazo[4,5-b]pyridin-2-yl]phenyl]cyclopropanecarbonitrile]
at least 80%: control (mortality, anti-feedant effect or growth inhibition) (Chilo suppressalis) | mortality (Bemisia tabaci) | effect in at least one of the two categories (mortality or growth inhibition) (Diabrotica balteata) | mortality (Myzus persicae [1]) | mortality (Myzus persicae [2])

CCS(=N)(=O)c1cc(C2(C#N)CC2)cnc1-c1nc2cc(C(F)(F)F)ncc2n1C (single isomer, unassigned) [Compound P10-B, 1-[5-(ethylsulfonimidoyl)-6-[3-methyl-6-(trifluoromethyl)imidazo[4,5-c]pyridin-2-yl]-3-pyridyl]cyclopropanecarbonitrile]
at least 80%: mortality (Bemisia tabaci) | mortality (Myzus persicae [1]) | mortality (Myzus persicae [2]) | effect in at least one of the two categories (mortality or growth inhibition) (Plutella xylostella)

CCS(=N)(=O)c1cc(OC(C)(C)C#N)cnc1-c1nc2cc(C(F)(F)F)ncc2n1C (single isomer, unassigned) [Compound P13-A, 2-[[5-(ethylsulfonimidoyl)-6-[3-methyl-6-(trifluoromethyl)imidazo[4,5-c]pyridin-2-yl]-3-pyridyl]oxy]-2-methyl-propanenitrile]
at least 80%: control (mortality, anti-feedant effect or growth inhibition) (Chilo suppressalis)

CCS(=N)(=O)c1cc(OC(C)(C)C#N)cnc1-c1nc2cc(C(F)(F)F)ncc2n1C (single isomer, unassigned) [Compound P13-B, 2-[[5-(ethylsulfonimidoyl)-6-[3-methyl-6-(trifluoromethyl)imidazo[4,5-c]pyridin-2-yl]-3-pyridyl]oxy]-2-methyl-propanenitrile]
at least 80%: mortality (Bemisia tabaci) | effect in at least one of the two categories (mortality or growth inhibition) (Diabrotica balteata) | mortality (Myzus persicae [1]) | mortality (Myzus persicae [2]) | effect in at least one of the two categories (mortality or growth inhibition) (Plutella xylostella)

CCn1c(C(F)(F)F)cc2nc(-c3ncc(C4(C#N)CC4)cc3S(=N)(=O)CC)n(C)c2c1=O (single isomer, unassigned) [Compound P14-A, 1-[6-[5-ethyl-3-methyl-4-oxo-6-(trifluoromethyl)imidazo[4,5-c]pyridin-2-yl]-5-(ethylsulfonimidoyl)-3-pyridyl]cyclopropanecarbonitrile]
at least 80%: control (mortality, anti-feedant effect or growth inhibition) (Chilo suppressalis)

CCn1c(C(F)(F)F)cc2nc(-c3ncc(C4(C#N)CC4)cc3S(=N)(=O)CC)n(C)c2c1=O (single isomer, unassigned) [Compound P14-B, 1-[6-[5-ethyl-3-methyl-4-oxo-6-(trifluoromethyl)imidazo[4,5-c]pyridin-2-yl]-5-(ethylsulfonimidoyl)-3-pyridyl]cyclopropanecarbonitrile]
at least 80%: control (mortality, anti-feeding effect or growth inhibition) (Spodoptera littoralis) | mortality (Bemisia tabaci) | effect in at least one of the two categories (mortality or growth inhibition) (Diabrotica balteata) | mortality (Myzus persicae [1]) | mortality (Myzus persicae [2]) | effect in at least one of the two categories (mortality or growth inhibition) (Plutella xylostella)

CCS(=N)(=O)c1cc(OC(C)(C)C#N)cnc1-c1nc2cc(C(F)(F)F)nnc2n1C (single isomer, unassigned) [Compound P15-B, 2-[[5-(ethylsulfonimidoyl)-6-[7-methyl-3-(trifluoromethyl)imidazo[4,5-c]pyridazin-6-yl]-3-pyridyl]oxy]-2-methyl-propanenitrile]
at least 80%: mortality (Bemisia tabaci) | effect in at least one of the two categories (mortality or growth inhibition) (Diabrotica balteata) | mortality (Myzus persicae [1]) | mortality (Myzus persicae [2]) | effect in at least one of the two categories (mortality or growth inhibition) (Plutella xylostella)

CCS(=N)(=O)c1cc(C2(C#N)CC2)cnc1-c1nc2cc(C(F)(F)F)cnc2n1C (single isomer, unassigned) [Compound P16-A, 1-[5-(ethylsulfonimidoyl)-6-[3-methyl-6-(trifluoromethyl)imidazo[4,5-b]pyridin-2-yl]-3-pyridyl]cyclopropanecarbonitrile]
at least 80%: control (mortality, anti-feedant effect or growth inhibition) (Chilo suppressalis)

CCS(=N)(=O)c1cc(C2(C#N)CC2)cnc1-c1nc2cc(C(F)(F)F)cnc2n1C (single isomer, unassigned) [Compound P16-B, 1-[5-(ethylsulfonimidoyl)-6-[3-methyl-6-(trifluoromethyl)imidazo[4,5-b]pyridin-2-yl]-3-pyridyl]cyclopropanecarbonitrile]
at least 80%: mortality (Bemisia tabaci) | mortality (Myzus persicae [1]) | mortality (Myzus persicae [2]) | effect in at least one of the two categories (mortality or growth inhibition) (Plutella xylostella)

CCS(=N)(=O)c1cc(C2(C#N)CC2)ccc1-c1nc2cc(C(F)(F)F)ncc2n1C (single isomer, unassigned) [Compound P18-B, 1-[3-(ethylsulfonimidoyl)-4-[3-methyl-6-(trifluoromethyl)imidazo[4,5-c]pyridin-2-yl]phenyl]cyclopropanecarbonitrile]
at least 80%: mortality (Bemisia tabaci) | effect in at least one of the two categories (mortality or growth inhibition) (Diabrotica balteata) | mortality (Myzus persicae [1]) | mortality (Myzus persicae [2])
